Assay: Heat generation performance of apotransferrin and iron ion-bound apotransferrin aqueous solutions under electromagnetic waves (Test Example 3)
Type: physicochemical
Details: 100 W for 3 min

Substance	increase in temperature of aqueous solution before and after electromagnetic waves (1 mg/ml)	increase in temperature of aqueous solution before and after electromagnetic waves (5 mg/ml)	change in temperature of aqueous solution before and after electromagnetic waves (all concentrations (0, 0.04, 0.2, 1 and 5 mg/ml))
transferrin: iron ion-bound apotransferrin prepared by reacting ferric hydroxide solution with apotransferrin at 37° C. for 30 min	4.4 °C	10.9 °C	
apotransferrin: apotransferrin (Sigma Aldrich, USA) having no iron ion bound thereto			less than 3 °C
